Laboratory results taken from PMC12309053.

By UniProt entry, the sequences of proteins in these tests, tags left out.
UniProt Q9NWH9: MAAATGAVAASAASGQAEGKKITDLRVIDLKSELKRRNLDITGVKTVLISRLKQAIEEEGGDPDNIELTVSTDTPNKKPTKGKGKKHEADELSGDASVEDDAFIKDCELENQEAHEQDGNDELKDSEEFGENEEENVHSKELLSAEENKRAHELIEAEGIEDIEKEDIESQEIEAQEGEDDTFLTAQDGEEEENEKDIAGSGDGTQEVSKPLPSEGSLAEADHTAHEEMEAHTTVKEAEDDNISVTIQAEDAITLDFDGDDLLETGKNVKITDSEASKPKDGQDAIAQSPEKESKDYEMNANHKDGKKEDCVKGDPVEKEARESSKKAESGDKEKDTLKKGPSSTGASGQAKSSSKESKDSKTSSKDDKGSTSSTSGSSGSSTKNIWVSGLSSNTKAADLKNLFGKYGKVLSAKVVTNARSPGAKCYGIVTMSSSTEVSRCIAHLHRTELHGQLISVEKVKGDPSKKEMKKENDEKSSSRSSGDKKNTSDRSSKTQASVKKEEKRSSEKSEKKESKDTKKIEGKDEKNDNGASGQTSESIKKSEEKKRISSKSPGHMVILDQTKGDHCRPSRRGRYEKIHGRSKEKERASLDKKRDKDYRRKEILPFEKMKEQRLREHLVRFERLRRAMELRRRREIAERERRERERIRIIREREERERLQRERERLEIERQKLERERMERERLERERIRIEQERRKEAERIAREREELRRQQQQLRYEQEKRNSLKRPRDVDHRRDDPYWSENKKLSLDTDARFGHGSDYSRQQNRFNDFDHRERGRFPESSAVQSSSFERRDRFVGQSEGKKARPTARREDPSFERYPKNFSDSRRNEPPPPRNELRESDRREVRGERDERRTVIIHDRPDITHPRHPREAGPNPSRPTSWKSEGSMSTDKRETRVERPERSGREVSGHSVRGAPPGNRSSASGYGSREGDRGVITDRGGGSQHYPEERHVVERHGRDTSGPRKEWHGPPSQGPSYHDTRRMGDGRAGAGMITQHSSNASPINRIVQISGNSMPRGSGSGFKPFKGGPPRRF
UniProt Q07955: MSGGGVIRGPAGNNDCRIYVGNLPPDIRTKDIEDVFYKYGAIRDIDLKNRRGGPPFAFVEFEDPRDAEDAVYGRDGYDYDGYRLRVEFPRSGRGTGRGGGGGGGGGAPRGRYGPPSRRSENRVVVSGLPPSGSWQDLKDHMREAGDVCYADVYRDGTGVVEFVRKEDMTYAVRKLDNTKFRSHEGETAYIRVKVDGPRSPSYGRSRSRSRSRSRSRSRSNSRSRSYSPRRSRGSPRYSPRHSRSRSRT
UniProt Q13427: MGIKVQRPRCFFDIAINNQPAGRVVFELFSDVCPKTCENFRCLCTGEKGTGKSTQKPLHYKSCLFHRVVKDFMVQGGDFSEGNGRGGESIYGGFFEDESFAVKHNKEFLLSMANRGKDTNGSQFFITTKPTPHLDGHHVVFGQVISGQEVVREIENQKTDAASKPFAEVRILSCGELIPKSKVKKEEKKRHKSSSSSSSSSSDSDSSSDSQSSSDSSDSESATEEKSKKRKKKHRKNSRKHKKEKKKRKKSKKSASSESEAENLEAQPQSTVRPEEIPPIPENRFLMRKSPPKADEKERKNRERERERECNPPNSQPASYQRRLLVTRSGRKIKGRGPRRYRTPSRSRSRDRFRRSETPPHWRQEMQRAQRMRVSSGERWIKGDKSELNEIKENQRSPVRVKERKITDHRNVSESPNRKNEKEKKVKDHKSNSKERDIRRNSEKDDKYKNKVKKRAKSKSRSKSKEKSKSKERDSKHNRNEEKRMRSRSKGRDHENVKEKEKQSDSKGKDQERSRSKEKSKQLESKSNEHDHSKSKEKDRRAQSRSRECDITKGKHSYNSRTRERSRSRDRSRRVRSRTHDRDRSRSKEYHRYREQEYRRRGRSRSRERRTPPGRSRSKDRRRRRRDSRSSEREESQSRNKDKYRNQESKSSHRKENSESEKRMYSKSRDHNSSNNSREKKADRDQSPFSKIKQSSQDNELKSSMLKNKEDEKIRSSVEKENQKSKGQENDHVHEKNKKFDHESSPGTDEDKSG
UniProt Q96NC0: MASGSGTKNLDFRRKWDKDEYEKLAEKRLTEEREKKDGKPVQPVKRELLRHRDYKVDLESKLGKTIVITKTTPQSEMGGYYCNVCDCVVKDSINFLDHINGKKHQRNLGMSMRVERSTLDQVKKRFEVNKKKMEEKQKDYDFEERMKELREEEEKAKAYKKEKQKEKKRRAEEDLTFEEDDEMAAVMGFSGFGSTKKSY
UniProt Q9HAZ1: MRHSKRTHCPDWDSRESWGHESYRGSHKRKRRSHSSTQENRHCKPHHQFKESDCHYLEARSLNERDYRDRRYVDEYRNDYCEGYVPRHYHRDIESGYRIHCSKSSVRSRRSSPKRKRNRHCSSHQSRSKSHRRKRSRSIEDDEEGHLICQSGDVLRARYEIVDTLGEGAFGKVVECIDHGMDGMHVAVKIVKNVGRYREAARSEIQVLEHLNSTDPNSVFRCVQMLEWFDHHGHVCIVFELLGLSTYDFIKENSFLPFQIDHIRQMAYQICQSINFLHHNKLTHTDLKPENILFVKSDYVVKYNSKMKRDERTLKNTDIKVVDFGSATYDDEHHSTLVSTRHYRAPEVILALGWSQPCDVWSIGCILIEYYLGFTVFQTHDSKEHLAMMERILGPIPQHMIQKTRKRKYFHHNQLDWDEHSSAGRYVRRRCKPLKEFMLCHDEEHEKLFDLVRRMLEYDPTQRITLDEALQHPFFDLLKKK
UniProt Q9UQ35: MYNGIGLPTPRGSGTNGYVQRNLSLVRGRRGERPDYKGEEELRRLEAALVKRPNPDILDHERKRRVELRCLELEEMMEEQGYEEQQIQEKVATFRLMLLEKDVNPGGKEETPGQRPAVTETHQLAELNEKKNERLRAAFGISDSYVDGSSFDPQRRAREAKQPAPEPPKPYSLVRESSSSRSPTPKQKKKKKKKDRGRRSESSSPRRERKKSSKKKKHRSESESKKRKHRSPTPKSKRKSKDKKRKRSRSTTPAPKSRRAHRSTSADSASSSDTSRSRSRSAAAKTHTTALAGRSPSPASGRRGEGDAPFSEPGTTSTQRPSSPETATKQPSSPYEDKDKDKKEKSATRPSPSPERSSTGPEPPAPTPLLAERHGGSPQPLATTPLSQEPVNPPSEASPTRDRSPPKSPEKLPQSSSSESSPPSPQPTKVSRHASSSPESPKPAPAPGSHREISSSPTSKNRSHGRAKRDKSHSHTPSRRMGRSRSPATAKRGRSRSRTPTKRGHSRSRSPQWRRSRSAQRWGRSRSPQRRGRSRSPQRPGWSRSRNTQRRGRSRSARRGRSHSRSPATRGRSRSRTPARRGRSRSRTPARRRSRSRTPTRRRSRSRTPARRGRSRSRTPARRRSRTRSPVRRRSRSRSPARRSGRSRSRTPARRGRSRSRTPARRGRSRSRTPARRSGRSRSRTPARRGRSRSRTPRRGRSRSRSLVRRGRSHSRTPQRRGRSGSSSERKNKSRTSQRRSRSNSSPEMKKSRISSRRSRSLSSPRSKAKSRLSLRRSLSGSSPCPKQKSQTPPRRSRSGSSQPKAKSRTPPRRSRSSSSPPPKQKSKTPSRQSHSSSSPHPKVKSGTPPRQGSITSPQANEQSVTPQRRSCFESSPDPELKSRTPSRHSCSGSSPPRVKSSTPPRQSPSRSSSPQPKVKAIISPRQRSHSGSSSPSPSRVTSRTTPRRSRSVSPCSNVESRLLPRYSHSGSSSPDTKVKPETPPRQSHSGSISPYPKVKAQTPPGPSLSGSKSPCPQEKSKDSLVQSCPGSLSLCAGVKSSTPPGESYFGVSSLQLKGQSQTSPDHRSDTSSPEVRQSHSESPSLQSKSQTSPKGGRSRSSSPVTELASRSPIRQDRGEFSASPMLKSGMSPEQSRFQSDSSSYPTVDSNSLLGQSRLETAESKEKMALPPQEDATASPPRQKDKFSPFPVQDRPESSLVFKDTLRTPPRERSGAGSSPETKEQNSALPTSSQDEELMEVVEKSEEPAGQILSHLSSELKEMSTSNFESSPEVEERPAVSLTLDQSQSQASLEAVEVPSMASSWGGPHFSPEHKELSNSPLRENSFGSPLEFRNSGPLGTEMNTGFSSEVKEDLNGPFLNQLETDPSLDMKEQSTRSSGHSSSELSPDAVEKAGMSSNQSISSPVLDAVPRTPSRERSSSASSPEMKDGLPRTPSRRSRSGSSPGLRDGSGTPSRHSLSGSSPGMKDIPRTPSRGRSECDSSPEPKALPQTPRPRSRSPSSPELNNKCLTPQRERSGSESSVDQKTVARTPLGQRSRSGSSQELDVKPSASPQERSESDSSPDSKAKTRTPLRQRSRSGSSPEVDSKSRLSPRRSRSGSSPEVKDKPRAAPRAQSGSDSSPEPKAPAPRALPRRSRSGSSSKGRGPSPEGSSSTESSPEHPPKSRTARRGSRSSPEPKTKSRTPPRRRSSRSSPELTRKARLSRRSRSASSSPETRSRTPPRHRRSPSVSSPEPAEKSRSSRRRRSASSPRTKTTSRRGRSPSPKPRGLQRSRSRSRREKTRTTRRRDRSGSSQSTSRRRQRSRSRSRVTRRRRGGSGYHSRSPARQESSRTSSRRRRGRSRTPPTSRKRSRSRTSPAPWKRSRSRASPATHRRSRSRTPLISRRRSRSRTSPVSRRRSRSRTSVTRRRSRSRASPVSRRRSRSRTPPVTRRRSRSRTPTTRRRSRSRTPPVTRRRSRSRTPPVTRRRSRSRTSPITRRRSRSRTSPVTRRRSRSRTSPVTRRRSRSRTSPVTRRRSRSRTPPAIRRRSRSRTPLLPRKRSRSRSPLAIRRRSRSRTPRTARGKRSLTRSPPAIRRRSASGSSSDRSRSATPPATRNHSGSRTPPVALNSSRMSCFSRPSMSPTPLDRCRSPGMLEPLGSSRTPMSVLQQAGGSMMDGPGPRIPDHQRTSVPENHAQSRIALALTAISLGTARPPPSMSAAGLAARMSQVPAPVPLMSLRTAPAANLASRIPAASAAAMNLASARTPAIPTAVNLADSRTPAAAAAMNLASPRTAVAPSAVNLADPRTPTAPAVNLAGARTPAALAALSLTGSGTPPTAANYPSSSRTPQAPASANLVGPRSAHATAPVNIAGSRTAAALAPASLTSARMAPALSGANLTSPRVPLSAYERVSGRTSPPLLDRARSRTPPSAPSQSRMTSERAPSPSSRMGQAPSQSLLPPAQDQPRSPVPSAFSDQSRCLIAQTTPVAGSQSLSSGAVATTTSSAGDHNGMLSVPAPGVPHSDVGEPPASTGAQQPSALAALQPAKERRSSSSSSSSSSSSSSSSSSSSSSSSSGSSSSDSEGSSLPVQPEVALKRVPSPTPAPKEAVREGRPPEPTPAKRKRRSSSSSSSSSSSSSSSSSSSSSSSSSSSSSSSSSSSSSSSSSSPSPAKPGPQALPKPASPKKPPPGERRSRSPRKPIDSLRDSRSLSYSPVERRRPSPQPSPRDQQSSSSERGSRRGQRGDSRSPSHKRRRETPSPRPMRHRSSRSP
UniProt P49760: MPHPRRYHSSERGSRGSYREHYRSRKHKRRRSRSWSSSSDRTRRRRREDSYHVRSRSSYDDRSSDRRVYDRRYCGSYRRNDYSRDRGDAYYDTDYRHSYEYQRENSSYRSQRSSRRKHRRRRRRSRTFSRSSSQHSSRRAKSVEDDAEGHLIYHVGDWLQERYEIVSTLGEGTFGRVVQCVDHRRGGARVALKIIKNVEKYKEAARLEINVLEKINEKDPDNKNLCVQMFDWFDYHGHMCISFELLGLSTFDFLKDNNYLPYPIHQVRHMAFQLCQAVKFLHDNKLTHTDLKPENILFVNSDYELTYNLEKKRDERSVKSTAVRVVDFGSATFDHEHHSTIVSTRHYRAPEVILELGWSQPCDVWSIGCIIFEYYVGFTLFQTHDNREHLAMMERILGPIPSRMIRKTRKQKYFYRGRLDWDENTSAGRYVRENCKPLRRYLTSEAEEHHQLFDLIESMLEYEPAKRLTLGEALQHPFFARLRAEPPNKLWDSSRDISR
UniProt Q13123: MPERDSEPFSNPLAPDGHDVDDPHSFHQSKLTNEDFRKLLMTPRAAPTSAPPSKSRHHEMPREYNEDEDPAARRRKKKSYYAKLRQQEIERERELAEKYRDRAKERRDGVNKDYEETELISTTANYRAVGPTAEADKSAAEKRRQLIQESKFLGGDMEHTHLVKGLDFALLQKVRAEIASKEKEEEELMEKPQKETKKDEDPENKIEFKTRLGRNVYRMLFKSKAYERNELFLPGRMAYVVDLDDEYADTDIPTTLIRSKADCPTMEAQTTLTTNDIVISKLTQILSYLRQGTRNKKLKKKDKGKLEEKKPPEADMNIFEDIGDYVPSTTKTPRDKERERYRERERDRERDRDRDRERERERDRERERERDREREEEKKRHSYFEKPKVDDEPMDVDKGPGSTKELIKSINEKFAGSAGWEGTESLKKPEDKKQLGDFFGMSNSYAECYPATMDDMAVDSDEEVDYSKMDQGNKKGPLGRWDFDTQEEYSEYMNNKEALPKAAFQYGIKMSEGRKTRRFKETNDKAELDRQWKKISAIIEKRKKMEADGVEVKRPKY

biological target: T1, SRSF7-GFP fusion product (Serine/arginine-rich splicing factor 7, GFP-tagged at the C-terminus, from a BAC) (human) (UniProt Q16629); test: affinity purification with mass spectrometry; GFP-Trap agarose beads on lysates of BAC-SRSF7-GFP MDA-MB-231 cells treated with 0.1% DMSO or 1 µM T-025 for 24 h; EBC buffer, benzonase, 300 mM NaCl, 2 h at 4 °C; MDA-MB-231-GFP cells as negative control; on-bead trypsin digest, label-free quantification, phospho (STY) as variable modification, four biological replicates
T1 sequence: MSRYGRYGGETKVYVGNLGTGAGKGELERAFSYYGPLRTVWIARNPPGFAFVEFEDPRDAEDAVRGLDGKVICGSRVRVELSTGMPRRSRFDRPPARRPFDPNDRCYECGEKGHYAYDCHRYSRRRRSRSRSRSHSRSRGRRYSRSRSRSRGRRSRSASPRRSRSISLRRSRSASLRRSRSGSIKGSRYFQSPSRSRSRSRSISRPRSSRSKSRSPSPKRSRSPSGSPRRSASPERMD

Substance | binding
SLTM (from UniProt Q9NWH9 1-1034) | binds
phosphorylated SRSF9 (from UniProt Q13242 1-221) | binds
MFAP1 (from UniProt P55081 1-439) | binds
PRPF4B (human (endogenous in MDA-MB-231)) | binds
PRPF40A (from UniProt O75400 1-957) | binds
phosphorylated SRSF1 (from UniProt Q07955 1-248) | binds
PPIG (from UniProt Q13427 1-754) | binds

Now from value to substance:

binding | Substance
binds | ZMAT2 (from UniProt Q96NC0 1-199)
binds | phosphorylated SRSF10 (from UniProt O75494 1-262)
binds | CLK3 (from UniProt P49761 1-490)
binds | CLK4 (from UniProt Q9HAZ1 1-481)
binds | SRRM2 (from UniProt Q9UQ35 1-2752)
binds | POLR1A (from UniProt O95602 1-1720)
binds | CLK1 (from UniProt P49759 1-484)
binds | CLK2 (from UniProt P49760 1-499)
binds | SRPK1 (from UniProt Q96SB4 1-655)
binds | CHD2 (from UniProt O14647 1-1828)
binds | IK (from UniProt Q13123 1-557)

Results are given in words; binding and its absence hold for the method and conditions named. In cells and extracts the contact can be indirect. Here binding means that the protein was enriched with, or labelled near, the bait; the list need not be complete. Where a sequence is shown, tags or fusion partners need not be part of it.
